Experimental findings from publication PMC7434918 are described below.

Chains of the proteins cited; added tags and fusions are not shown. Residues count along the entry.
UniProt O75460, residues 19-977: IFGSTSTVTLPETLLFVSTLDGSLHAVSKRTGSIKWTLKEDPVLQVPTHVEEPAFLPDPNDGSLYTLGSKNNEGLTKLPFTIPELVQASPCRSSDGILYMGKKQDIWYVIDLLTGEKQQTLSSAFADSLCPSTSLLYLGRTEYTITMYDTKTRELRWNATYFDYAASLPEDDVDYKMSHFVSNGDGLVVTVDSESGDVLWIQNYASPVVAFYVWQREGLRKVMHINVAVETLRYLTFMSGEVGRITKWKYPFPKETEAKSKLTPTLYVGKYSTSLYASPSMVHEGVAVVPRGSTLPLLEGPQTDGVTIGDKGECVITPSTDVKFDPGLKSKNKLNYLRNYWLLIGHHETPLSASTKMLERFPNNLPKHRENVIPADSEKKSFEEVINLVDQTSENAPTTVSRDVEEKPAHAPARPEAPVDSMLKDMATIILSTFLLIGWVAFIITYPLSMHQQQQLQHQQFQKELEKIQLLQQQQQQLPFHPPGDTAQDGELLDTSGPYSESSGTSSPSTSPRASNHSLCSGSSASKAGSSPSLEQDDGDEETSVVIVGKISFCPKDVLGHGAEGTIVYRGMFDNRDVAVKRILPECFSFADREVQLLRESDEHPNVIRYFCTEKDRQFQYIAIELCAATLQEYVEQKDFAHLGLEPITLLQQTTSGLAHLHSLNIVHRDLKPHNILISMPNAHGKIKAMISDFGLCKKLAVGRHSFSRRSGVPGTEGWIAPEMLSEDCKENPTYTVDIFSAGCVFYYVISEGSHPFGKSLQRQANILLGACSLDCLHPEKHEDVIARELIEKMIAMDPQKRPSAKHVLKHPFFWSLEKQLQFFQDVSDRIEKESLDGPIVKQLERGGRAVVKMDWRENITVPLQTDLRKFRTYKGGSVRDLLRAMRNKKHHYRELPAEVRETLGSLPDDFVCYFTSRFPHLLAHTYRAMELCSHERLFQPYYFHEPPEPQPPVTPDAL

This assay concerns the target HA-tagged inositol-requiring enzyme 1-α (IRE1α) (UniProt O75460). Briefly: co-IP; HEK293T cells co-transfected with pMSCV-IRE1α-HA and pLacIOP alone or CAV1 constructs, 48 h; lysis buffer 0.5% NP-40, 350 mM NaCl, 150 mM KCl, 50 mM Tris pH 7.6; extracts incubated with anti-HA antibody-agarose 4 h at 4 °C, washed 3 times; CAV1 and IRE1α detected by blot.

No constants are given. Whether binding was seen depends on the method and setting. Binding seen in cells or lysates may run through a third protein. Some binding calls cover weakened binding; strength is not graded here.

B1: Caveolin-1 (CAV1), wild type (protein, UniProt P33724 1-178)
chain: MSGGKYVDSEGHLYTVPIREQGNIYKPNNKAMAEEMSEKQVYDAHTKEIDLVNRDPKHLNDDVVKIDFEDVIAEPEGTHSFDGIWKASFTTFTVTKYWFYRLLSALFGIPMALIWGIYFAILSFLHIWAVVPCIKSFLIEIQCISRVYSIYVHTFCDPFFEAVGKIFSNIRINMQKET
Consider B1, for which the binding entry is given as “binds”.
